For two substances, binding results are on record in publication PMC7614612.

Protein sequences, listed by entry. Tags and fused reporters are not part of them. Lines headed by an entry give the natural chain unless they say otherwise; changes in a name come on top.
UniProt Q9HW00: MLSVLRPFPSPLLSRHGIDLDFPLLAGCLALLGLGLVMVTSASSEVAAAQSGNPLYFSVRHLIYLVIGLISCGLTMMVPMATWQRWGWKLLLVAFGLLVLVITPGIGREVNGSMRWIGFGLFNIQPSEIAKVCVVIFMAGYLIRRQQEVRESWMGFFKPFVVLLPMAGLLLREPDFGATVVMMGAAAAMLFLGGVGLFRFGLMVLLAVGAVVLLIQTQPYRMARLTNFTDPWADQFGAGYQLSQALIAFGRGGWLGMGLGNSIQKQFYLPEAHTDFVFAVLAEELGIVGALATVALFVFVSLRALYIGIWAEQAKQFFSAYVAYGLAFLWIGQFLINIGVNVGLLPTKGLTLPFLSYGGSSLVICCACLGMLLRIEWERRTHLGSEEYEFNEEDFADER
UniProt P06136: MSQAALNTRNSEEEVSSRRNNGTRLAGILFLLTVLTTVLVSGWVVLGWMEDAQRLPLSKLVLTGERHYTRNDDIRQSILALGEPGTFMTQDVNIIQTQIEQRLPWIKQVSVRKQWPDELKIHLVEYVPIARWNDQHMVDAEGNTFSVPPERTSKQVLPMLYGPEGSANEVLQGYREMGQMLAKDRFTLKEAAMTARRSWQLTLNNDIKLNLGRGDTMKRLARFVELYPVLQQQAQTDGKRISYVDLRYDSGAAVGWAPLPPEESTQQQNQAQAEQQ
UniProt G3XD46: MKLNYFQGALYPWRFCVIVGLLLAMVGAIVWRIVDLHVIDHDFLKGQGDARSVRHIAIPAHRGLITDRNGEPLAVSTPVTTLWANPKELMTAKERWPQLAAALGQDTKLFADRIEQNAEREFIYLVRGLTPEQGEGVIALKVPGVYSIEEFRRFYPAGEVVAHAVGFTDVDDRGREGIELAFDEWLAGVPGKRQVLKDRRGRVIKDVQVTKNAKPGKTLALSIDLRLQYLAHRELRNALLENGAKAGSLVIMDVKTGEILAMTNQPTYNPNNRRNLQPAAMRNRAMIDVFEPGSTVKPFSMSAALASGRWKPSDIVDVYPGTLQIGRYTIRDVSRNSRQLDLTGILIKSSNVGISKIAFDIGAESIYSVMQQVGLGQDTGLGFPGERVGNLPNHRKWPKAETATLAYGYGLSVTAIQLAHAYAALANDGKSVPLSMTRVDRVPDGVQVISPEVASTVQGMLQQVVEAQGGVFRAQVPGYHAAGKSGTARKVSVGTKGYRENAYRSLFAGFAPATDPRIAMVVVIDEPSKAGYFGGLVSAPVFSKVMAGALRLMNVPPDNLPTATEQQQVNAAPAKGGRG

No constants are given. Whether binding was seen depends on the method and setting. In cells and extracts the contact can be indirect. Binding calls can cover weak binding; strength is not graded here.

Assay [1] deals with T1, E. coli TwinStrep-FtsK 1-222 (E. coli) (UniProt P46889).
T1 sequence: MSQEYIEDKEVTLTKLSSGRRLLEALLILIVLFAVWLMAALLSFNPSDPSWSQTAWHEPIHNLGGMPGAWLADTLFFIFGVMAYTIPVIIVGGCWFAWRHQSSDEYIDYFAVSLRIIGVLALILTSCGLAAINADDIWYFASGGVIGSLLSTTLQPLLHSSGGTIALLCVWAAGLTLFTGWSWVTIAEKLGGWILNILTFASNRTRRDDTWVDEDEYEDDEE
The assay is described as follows: co-purification (StrepTrap, then HisTrap, then SEC); FtsQ-His6 and TwinStrep-FtsK 1-222 co-expressed in Sf9, membranes solubilised in 1% GDN, StrepTrap-HP then HisTrap then Superose 6 Increase in 50 mM Tris, 100 mM NaCl, 0.006% GDN, 10% glycerol, pH 8.0, 4 C; SDS-PAGE of SEC fractions.

Assay [2] has as its target Pseudomonas aeruginosa FtsW (Pseudomonas aeruginosa) (UniProt Q9HW00). The assay is described as follows: cryo-EM structure; PaFtsWIQBL co-expressed in E. coli and co-purified, in LMNG micelle, 20 mM HEPES, 300 mM NaCl, pH 7.0, 0.005% LMNG; single-particle reconstruction at 3.7 A overall; both purified.

Consider E. coli FtsQ-His6 (from UniProt P06136), for which the binding entry in assay [1] is recorded as “binds”.

In the case of “Pseudomonas aeruginosa FtsI (from UniProt G3XD46 1-579) (enzyme)”, in assay [2], the binding entry is on record as “binds”.
